This is an account of results in publication PMC7819943, “Rice protein-binding microarrays: a tool to detect cis-acting elements near promoter regions in rice”.

The other results are listed elsewhere or left out.

This experiment addresses T1, OsSMF1 (Oryza sativa, UniProt Q6ZLB0 1-436).
T1 sequence: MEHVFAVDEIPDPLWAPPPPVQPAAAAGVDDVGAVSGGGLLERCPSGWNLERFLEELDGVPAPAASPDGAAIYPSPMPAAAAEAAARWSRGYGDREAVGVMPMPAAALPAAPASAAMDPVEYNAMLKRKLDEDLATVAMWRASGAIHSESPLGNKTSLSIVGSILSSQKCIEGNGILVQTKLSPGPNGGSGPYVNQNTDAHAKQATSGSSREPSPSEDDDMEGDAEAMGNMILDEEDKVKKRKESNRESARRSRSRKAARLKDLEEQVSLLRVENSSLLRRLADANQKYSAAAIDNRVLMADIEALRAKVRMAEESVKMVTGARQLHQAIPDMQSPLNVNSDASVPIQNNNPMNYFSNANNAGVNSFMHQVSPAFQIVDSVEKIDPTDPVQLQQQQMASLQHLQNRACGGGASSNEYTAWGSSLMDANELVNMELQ
Put plainly: protein-binding microarray (RPBM); PBS, 2% BSA, 51.3 ng/ul salmon testes DNA, 50 uM zinc acetate, 200 nM TF, 25 C, 1 h; high values mean tight binding. The following applies: protein: recombinant; tags: N-terminal polyhistidine and DsRed monomer fusion (pET32a); chain copies: 2; label: CyDye5-dUTP incorporated in the synthesized complementary strand; 3' TTTTT single-stranded linker to array surface; dsDNA, one strand shown. The essentials: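 Binding signal is defined as the fluorescence intensity of each feature in arbitrary units, read on an Axon 4000B scanner. Transcription factors with N-terminal polyhistidine and DsRed fusions came from E. coli BL21-CodonPlus and were purified on Ni–NTA. They were incubated at 200 nM for 1 h at 25 °C on a custom Agilent array that had been made double-stranded with Cy5-dUTP, with 50 µM zinc acetate present, and the array was washed.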
As to “TCCCAACCCCTCCAAAAGAACATTCCCAACTCACCTCCTTCGGAGTCACCTAGTGCAG”, the binding signal was 3140 fluorescence intensity (a.u.).
In the case of “ACAGGGGATGAAATATAGAATTAAAGCCACTCCTAAAGCCCGGAGTCACCTAGTGCAG”, the binding signal is 3190 fluorescence intensity (a.u.).
For “CTCGGATGGGCGTCGAGCGGCGGAGCTTGCACCAGAGTTCCGGAGTCACCTAGTGCAG”, the binding signal was 27600 fluorescence intensity (a.u.).
The value for “AAGAGCCAGAGCCCGCGCATGGGGAGCGTCATCCTCGGCGCGGAGTCACCTAGTGCAG” was 3220 fluorescence intensity (a.u.); that for “GCGTAAACCCTAGCGTAGGCGCGTAGCTGGCATCTCCGTCCGGAGTCACCTAGTGCAG” was 4630 fluorescence intensity (a.u.); that for “ATTTGAATGAAATAGTCTGACGTTGATTACAGGCACGCGCCGGAGTCACCTAGTGCAG” was 3650 fluorescence intensity (a.u.).
The value for “TAGTTGGCTTCCATTATCTGATTCGTGATACCTTGCGTGTCGGAGTCACCTAGTGCAG” was 4440 fluorescence intensity (a.u.); that for “CACACACTGTTAACTTGAACTGACTCAGACAAGGTGCACCCGGAGTCACCTAGTGCAG” was 3690 fluorescence intensity (a.u.); that for “TTTTCAGACGTTTTGCAATAGAGAATGTCAATGTCCATTGCGGAGTCACCTAGTGCAG” was 13600 fluorescence intensity (a.u.).
Consider “ATTGCAACCGGAGAGCCTGACCAAAGAAATTCAGATCCTTCGGAGTCACCTAGTGCAG”, for which the binding signal was 3200 fluorescence intensity (a.u.).
Regarding “ATATATATATATATATATATATAAGTTTCCACGAATAAGGCGGAGTCACCTAGTGCAG”, the binding signal was 3200 fluorescence intensity (a.u.).
Under “GGTGGACTCCAGTGGTTGCCTTGCATACTTAGCTTGCCTTCGGAGTCACCTAGTGCAG” stands 3460 fluorescence intensity (a.u.); under “TCTCAGCCATTCGATCGGTGGATGAGATCGCATATGAACCCGGAGTCACCTAGTGCAG”, 24300 fluorescence intensity (a.u.).
Consider “ATCTAGACACGCGCGCGCGCGCGCACATATATATATATATCGGAGTCACCTAGTGCAG”, for which the binding signal is 42600 fluorescence intensity (a.u.).
On to “GTCCGGCGAGTTCACCATCACCCTCGACCTCGAGACCAAGCGGAGTCACCTAGTGCAG”, for which the binding signal is 17000 fluorescence intensity (a.u.).
For the sequence “GCCGCCGTCCACGGCAGCCTCTACGCGTCGCTGCGCACCACGGAGTCACCTAGTGCAG”, the binding signal is 4310 fluorescence intensity (a.u.).
As for “ACGTGGTTCTCTGCTGATAATGTCAGAATGATTCATGAGCCGGAGTCACCTAGTGCAG”, the binding signal was 3790 fluorescence intensity (a.u.).
Turning to “AGATAATTGTGTCATCAGGAGGCCATGGCCATGATAGCAACGGAGTCACCTAGTGCAG”, the binding signal is 3540 fluorescence intensity (a.u.).
The value for “TTCGCTAACGCCGCGCGTCACGTAGACACGTACTACTAGCCGGAGTCACCTAGTGCAG” was 49600 fluorescence intensity (a.u.).
Take “GCCGCCTCCGTCACGGGGACCCGCCGCCTCTGCATTCTCTCGGAGTCACCTAGTGCAG”: the binding signal is 3150 fluorescence intensity (a.u.).
The value for “TACAGGACACGTCAGTCGATCCCCACAGTCTTCTTCCTCTCGGAGTCACCTAGTGCAG” was 16600 fluorescence intensity (a.u.); that for “CAACCATGTGACAGCTAGATCCGTGTGATTTACCAGGTCACGGAGTCACCTAGTGCAG” was 4640 fluorescence intensity (a.u.); that for “TGAACCAGCGGAGTCATACAATTAGTTTCTCCCAACAGTGCGGAGTCACCTAGTGCAG” was 3190 fluorescence intensity (a.u.).
For “ATCTCATTGTTTGTTACCAAATCCGGTTTACACCATTTTACGGAGTCACCTAGTGCAG”, the binding signal is 4120 fluorescence intensity (a.u.).
On to “TCATGTATTACTGCATTTCATCAATGCGTCACATGCACGGCGGAGTCACCTAGTGCAG”, for which the binding signal was 5860 fluorescence intensity (a.u.).
Consider “TATAAGGACCCGACACACAACATCTTTGACGTGTCCCCGTCGGAGTCACCTAGTGCAG”, for which the binding signal is 8620 fluorescence intensity (a.u.).
As for “AATAAATACGCCCACTGACGTGTGGGCCATACCCTCCTCCCGGAGTCACCTAGTGCAG”, the binding signal is 7770 fluorescence intensity (a.u.).
For the sequence “GGTGGGTGTGTGCTTGTTTCGGCGTGTGATTTGGGCGGAGCGGAGTCACCTAGTGCAG”, the binding signal is 3230 fluorescence intensity (a.u.).
With “CCACTAGCGCAGTAGCGCCTCCATGTATACGAGTGGTGTGCGGAGTCACCTAGTGCAG”, the binding signal is 3180 fluorescence intensity (a.u.).
Turning to “GGGATTGGGGTAGAGCCAGCTGACGAGGTGTAATCAGGATCGGAGTCACCTAGTGCAG”, the binding signal is 3140 fluorescence intensity (a.u.).
For the sequence “AGCTGCCTCTGCAACCCACGTCAAGAGCTCCCCACATCACCGGAGTCACCTAGTGCAG”, the binding signal is 4250 fluorescence intensity (a.u.).
With “CCAGCCTCCACTGTGCTCCTCGTGTCCGCCGTTCTGATCTCGGAGTCACCTAGTGCAG”, the binding signal is 3200 fluorescence intensity (a.u.).
For “CACCACGTCTCGCGCCGCAGCGTATGCACACCTCCTCAGCCGGAGTCACCTAGTGCAG”, the binding signal is 3970 fluorescence intensity (a.u.).
The value for “TTGAGCTCGATCTGACACGAAGGCACGTGGCCAACTAAGGCGGAGTCACCTAGTGCAG” was 6540 fluorescence intensity (a.u.); that for “CAAATATACATACATTCATATATAAACACGCTAACACGCACGGAGTCACCTAGTGCAG” was 3420 fluorescence intensity (a.u.).
For “CACTCCACCGCCGACGCCGTGCCACCGCTCCTACACAGACCGGAGTCACCTAGTGCAG”, the binding signal was 3650 fluorescence intensity (a.u.).
On to “ATGTGCTTATAATGGTAGGTTGTACGTACGTGCGTTTGTGCGGAGTCACCTAGTGCAG”, for which the binding signal was 3700 fluorescence intensity (a.u.).
For the sequence “AAGGGGAGGGGAGAGAGGAGTGGAGTGGGGCTCGGATTAGCGGAGTCACCTAGTGCAG”, the binding signal was 3920 fluorescence intensity (a.u.).
In the case of “GCACGTTGTAGTAGATATTTTCCTTTCTCTGCTTACATAACGGAGTCACCTAGTGCAG”, the binding signal was 3170 fluorescence intensity (a.u.).
As to “AGATGCTGGTGTCATAATATGTGCTAGGCCCGTCACCCTGCGGAGTCACCTAGTGCAG”, the binding signal was 4400 fluorescence intensity (a.u.).
For the sequence “AGAAGGAATGCACTAGGATATTATCTTTTCGCTTATACTTCGGAGTCACCTAGTGCAG”, the binding signal is 33200 fluorescence intensity (a.u.).
On to “TTTCCTATTGTAAAGTTCAAGAAATGCAAGGAATAACCATCGGAGTCACCTAGTGCAG”, for which the binding signal was 27000 fluorescence intensity (a.u.).
